At least one read-out could not be matched to a standard name with certainty.
Conditions: solubilized in 20% Intralipid (or soluble form mixed 1:1, 10% Intralipid)

Substance: IALILEP(Sar)CCQERAA [PA-I8Sar]
- Appearance on solubilization in Intralipid: homogeneous solution which does not separate well upon centrifugation
